Assay results taken from patent US11433099B2, “Immunotherapy with B*08 restricted peptides and combination of peptides against cancers and related methods” (Immatics Biotechnologies GmbH, priority 2018, dated 2022).

system: HLA peptide pools from tumor and normal tissue samples; assay: Identification and relative LC-MS quantitation of HLA-presented tumor associated peptides (presentation profiles); design: species or system human; details: Table 8; cancer entities on which the peptide was presented

Row | Substance | Peptide Presentation on cancer entities
1 | 289 (SLAESEASL; listed as Homo sapiens) [compound 289] | CCC, GBC, HCC, HNSCC, NSCLCadeno, NSCLCsquam, NSCLCother, OC, OSCAR, PACA, UEC
2 | 291 (YVYANHFTEA; listed as Homo sapiens) [compound 291] | BRCA, CCC, CRC, GBC, GC, GEJC, HCC, HNSCC, MEL, NHL, NSCLCadeno, NSCLCother, NSCLCsquam, OC, OSCAR, PACA, SCLC, UBC, UEC

same assay, conditions: cancer entities on which the peptide was found presented (Table 8A); value = entity abbreviations

Row | Substance | Peptide Presentation on cancer entities
3 | 217 (ETIKGHSVRL; listed as Homo sapiens) [compound 217] | HNSCC
4 | 220 (LAVRHLSL; listed as Homo sapiens) [compound 220] | CCC
5 | 221 (SLKEELLSL; listed as Homo sapiens) [compound 221] | CCC
6 | 223 (DVSARKLRV; listed as Homo sapiens) [compound 223] | SCLC
7 | 224 (LPYPPQKVV; listed as Homo sapiens) [compound 224] | GBM
8 | 225 (MPKRAHWGA; listed as Homo sapiens) [compound 225] | HNSCC
9 | 226 (DIYEVAVSL; listed as Homo sapiens) [compound 226] | CCC
10 | 227 (SRFPGMSVL; listed as Homo sapiens) [compound 227] | MEL
11 | 228 (TLRAYVLAL; listed as Homo sapiens) [compound 228] | NSCLCother
12 | 230 (DVYFHHVL; listed as Homo sapiens) [compound 230] | HNSCC, NSCLCadeno, NSCLCsquam
13 | 232 (KLYIHRVTL; listed as Homo sapiens) [compound 232] | MEL
14 | 233 (DVKLVFVM; listed as Homo sapiens) [compound 233] | NHL, NSCLCother
15 | 234 (VFRVGISF; listed as Homo sapiens) [compound 234] | GBC
16 | 235 (SPNSLVTIL; listed as Homo sapiens) [compound 235] | HNSCC
17 | 236 (STLKKSLEI; listed as Homo sapiens) [compound 236] | NSCLCsquam
18 | 237 (LPLDSRYVTL; listed as Homo sapiens) [compound 237] | NSCLCother
19 | 238 (IPLAIARL; listed as Homo sapiens) [compound 238] | NSCLCsquam
20 | 239 (SEPVMRVTL; listed as Homo sapiens) [compound 239] | HNSCC
21 | 240 (KVIDRKVEL; listed as Homo sapiens) [compound 240] | NSCLCadeno, NSCLCsquam
22 | 241 (NAYEAPSI; listed as Homo sapiens) [compound 241] | GBM
23 | 242 (KPQSLQLVL; listed as Homo sapiens) [compound 242] | NSCLCother
24 | 243 (EGVPPGTVL; listed as Homo sapiens) [compound 243] | NSCLCsquam
25 | 244 (HALPPYITVL; listed as Homo sapiens) [compound 244] | MEL, NHL
26 | 245 (GPRGPSSGHPL; listed as Homo sapiens) [compound 245] | MEL
27 | 248 (SEVNKHETAL; listed as Homo sapiens) [compound 248] | HNSCC
28 | 249 (QQIDRVVEV; listed as Homo sapiens) [compound 249] | CCC, GBM, NHL
29 | 250 (AARAPPQAL; listed as Homo sapiens) [compound 250] | BRCA, GBC
30 | 251 (DAAAFFKSV; listed as Homo sapiens) [compound 251] | GBM
